Compound in the assay: CC1Cc2ccccc2N1C(=O)C1CCCN(C1)C(=O)CCl (mixture of isomers) [TRIM25 ligand 11 (diastereomer mixture)]
As to the kind of experiment: probe-labelled cysteine peptide fold change vs DMSO (competition) (log2 fold change); higher = less target engagement (more negative = stronger competition). Conditions: THP-1, incubation time: 4 h.

Protein sequences, listed by entry. Tags and fused reporters are not part of them. Lines headed by an entry give the natural chain unless they say otherwise; changes in a name come on top.
UniProt Q93009, whole entry, looked up: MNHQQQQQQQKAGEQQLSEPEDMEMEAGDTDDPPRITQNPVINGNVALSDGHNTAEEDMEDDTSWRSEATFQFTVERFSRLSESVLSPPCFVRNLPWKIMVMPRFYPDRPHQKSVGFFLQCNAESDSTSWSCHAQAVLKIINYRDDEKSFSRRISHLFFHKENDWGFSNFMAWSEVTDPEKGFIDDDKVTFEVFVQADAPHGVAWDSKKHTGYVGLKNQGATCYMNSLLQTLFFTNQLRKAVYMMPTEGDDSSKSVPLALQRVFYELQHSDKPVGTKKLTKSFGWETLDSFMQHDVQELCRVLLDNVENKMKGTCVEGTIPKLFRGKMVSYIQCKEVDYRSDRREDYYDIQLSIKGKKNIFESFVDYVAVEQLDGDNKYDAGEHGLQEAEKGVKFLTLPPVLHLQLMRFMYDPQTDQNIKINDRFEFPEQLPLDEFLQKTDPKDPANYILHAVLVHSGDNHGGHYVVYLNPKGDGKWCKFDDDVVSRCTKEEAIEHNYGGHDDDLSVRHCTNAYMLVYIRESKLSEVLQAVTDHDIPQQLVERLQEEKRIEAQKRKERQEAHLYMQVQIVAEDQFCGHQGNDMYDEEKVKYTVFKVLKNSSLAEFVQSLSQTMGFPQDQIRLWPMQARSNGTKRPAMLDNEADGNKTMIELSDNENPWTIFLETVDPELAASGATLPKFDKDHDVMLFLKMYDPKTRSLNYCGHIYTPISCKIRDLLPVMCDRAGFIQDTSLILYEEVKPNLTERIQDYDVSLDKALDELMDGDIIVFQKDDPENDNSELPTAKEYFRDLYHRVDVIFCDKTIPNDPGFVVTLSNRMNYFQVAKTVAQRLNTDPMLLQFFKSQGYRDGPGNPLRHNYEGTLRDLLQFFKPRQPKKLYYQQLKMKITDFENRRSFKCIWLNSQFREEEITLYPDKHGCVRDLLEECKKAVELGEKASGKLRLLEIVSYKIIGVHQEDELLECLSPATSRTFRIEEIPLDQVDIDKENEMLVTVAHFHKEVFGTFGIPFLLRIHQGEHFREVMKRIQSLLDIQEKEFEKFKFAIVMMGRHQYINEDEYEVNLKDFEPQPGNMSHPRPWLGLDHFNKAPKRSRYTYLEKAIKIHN
UniProt Q96T88: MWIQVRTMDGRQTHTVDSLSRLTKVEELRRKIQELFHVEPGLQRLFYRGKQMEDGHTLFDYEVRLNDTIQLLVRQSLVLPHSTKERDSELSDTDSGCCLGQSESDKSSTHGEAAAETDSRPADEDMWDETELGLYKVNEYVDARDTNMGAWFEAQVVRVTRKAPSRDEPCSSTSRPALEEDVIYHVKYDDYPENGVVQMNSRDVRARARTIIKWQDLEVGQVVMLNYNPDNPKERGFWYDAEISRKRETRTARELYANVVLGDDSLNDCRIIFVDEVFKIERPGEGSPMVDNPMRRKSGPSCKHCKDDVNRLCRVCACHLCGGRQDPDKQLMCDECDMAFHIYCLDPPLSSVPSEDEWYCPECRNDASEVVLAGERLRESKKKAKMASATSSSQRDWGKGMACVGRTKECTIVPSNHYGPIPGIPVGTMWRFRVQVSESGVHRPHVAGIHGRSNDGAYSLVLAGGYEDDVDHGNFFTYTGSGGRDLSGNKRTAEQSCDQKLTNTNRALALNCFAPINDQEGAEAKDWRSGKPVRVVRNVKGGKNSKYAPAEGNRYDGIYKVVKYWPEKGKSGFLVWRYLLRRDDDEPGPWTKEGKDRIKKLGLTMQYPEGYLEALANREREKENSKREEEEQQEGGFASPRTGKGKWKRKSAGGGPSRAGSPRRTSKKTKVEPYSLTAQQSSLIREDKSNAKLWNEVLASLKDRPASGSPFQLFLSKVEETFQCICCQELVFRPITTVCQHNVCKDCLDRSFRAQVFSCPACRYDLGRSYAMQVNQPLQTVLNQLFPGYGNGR
UniProt Q9HAU5: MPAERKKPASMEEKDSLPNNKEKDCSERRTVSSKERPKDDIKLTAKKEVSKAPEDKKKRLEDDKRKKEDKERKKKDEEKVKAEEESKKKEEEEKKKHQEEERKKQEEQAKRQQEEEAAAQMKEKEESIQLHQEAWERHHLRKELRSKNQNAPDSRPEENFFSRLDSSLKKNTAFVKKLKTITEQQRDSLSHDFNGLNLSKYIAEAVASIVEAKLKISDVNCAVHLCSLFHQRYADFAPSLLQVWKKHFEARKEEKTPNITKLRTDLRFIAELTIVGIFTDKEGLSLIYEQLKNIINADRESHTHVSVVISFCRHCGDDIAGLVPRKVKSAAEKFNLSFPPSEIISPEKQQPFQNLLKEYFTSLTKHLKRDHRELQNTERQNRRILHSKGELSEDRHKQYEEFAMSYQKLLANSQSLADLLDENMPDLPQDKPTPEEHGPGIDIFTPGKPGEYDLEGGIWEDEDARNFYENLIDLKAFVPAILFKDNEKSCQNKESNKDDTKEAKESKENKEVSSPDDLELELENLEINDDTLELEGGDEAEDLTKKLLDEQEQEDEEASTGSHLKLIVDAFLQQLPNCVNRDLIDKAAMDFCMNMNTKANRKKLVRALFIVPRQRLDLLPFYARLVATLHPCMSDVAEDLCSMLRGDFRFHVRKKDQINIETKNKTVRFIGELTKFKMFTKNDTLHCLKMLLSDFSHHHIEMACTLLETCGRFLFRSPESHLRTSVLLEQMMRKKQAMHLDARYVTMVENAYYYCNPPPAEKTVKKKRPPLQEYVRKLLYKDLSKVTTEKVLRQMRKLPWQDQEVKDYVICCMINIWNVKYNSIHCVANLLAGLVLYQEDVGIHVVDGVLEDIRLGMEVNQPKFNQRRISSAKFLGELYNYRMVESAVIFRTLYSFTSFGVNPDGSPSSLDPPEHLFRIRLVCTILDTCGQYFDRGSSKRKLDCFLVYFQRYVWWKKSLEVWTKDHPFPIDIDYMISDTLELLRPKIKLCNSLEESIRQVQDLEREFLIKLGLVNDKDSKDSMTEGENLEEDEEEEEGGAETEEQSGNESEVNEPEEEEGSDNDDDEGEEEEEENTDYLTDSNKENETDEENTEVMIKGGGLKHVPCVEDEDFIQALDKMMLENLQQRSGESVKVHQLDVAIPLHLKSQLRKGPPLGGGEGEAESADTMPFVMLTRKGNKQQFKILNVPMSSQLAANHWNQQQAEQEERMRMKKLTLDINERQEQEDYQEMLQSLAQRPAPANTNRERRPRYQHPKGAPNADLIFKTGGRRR
UniProt Q96PU4: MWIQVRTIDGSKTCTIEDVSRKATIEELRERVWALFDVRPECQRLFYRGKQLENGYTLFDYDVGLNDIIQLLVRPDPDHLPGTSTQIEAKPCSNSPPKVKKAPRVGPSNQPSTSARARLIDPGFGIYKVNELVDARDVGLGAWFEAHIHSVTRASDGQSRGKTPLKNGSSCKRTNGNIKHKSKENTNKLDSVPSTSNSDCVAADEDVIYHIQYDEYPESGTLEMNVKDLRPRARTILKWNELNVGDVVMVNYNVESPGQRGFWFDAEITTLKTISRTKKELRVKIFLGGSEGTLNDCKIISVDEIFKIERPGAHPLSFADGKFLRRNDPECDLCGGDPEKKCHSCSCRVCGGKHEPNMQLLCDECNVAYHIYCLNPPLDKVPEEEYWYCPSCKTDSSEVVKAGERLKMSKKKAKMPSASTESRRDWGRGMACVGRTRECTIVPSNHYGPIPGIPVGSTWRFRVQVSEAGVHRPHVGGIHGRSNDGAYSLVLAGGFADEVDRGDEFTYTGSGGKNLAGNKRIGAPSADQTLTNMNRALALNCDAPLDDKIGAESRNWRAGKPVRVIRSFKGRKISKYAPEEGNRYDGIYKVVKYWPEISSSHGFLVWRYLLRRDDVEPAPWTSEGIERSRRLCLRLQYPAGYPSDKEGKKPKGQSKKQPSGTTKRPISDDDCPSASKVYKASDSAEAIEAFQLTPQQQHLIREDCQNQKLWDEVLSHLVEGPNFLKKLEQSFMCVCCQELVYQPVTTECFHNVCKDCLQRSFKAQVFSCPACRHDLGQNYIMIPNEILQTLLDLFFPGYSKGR
UniProt Q9Y4E8: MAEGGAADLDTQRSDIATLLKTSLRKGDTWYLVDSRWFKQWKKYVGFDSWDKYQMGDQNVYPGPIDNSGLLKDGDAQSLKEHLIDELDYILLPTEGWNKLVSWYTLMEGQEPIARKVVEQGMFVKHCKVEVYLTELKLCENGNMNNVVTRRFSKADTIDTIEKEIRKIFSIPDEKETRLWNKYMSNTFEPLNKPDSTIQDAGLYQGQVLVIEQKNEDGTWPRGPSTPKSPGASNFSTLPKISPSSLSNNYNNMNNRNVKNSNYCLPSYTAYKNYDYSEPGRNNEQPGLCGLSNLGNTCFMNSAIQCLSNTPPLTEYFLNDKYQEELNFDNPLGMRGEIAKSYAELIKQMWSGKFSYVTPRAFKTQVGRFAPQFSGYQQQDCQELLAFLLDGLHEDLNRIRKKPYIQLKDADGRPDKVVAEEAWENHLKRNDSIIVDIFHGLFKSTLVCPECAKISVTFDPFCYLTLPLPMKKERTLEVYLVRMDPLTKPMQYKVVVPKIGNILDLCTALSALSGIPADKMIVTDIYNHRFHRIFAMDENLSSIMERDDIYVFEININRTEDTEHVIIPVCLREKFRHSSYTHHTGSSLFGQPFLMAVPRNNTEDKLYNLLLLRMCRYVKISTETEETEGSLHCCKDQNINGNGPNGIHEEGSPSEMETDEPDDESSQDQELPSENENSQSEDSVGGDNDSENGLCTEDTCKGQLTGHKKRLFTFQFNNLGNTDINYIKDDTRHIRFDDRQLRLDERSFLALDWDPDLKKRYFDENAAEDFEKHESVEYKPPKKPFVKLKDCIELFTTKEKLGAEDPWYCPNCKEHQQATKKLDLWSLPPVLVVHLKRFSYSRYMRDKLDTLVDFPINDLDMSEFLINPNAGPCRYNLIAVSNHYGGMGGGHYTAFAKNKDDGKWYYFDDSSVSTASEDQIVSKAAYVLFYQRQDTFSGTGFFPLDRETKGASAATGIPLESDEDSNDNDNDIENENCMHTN
UniProt O94966: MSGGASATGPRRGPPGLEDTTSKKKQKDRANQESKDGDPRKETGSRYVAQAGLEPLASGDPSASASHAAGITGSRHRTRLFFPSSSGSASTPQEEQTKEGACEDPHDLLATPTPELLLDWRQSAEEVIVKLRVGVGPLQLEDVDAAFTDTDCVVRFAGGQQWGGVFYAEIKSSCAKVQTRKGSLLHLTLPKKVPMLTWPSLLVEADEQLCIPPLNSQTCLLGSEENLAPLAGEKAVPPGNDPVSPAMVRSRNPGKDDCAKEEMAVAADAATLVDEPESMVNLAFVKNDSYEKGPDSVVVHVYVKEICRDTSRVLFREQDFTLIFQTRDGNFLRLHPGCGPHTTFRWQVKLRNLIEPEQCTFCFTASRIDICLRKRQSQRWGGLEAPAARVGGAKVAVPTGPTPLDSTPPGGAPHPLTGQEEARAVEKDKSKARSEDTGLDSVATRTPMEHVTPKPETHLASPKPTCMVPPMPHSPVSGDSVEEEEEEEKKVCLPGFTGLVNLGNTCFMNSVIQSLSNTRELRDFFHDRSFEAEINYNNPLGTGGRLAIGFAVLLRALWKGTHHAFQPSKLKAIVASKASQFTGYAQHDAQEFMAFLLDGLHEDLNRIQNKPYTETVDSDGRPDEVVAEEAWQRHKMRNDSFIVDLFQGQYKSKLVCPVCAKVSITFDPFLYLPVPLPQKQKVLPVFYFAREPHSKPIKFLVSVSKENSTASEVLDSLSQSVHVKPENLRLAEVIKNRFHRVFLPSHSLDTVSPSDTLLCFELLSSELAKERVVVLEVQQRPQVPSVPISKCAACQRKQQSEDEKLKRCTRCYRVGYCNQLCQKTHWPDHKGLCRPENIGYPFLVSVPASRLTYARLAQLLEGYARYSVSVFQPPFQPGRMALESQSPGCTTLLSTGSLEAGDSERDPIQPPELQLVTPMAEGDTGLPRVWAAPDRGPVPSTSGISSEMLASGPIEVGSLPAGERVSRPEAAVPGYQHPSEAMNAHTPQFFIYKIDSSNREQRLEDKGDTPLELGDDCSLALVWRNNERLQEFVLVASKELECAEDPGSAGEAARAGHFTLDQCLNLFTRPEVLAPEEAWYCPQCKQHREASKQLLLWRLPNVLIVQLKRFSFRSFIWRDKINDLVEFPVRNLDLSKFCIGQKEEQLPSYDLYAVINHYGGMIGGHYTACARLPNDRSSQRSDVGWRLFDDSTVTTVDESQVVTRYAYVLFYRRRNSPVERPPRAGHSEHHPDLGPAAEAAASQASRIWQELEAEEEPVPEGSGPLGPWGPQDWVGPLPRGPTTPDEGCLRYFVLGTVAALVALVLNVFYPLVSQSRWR
UniProt Q9Y3C8: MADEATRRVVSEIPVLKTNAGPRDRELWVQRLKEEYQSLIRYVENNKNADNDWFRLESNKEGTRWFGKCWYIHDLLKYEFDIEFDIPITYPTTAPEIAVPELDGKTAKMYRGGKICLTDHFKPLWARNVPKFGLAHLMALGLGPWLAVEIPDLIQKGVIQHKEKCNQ

Some of the results follow.
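Also: competitive chemoproteomic profiling in live THP-1 cells with an iodoacetamide desthiobiotin (IA-DTB) probe, comparing probe-labelled peptide intensities in compound-treated cells against DMSO-treated controls.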

Take “UBXN1_Q04323_214_EYDQCR (UniProt Q04323)”: the “probe-labelled cysteine peptide fold change” value is -0.0848 (10 µM) and 0.0942 (50 µM).
The matching figures for “USP7_Q93009_721_DLLPVMCDR (UniProt Q93009)”: -0.0179 and 0.0994.
The matching figures for UGDH_O60701_64_EVVESCR (UniProt O60701): -0.031 and 0.124.
For the target “UHRF1_Q96T88_170_DEPCSSTSRPALEEDVIYHVK (UniProt Q96T88)”, the “probe-labelled cysteine peptide fold change” value by setting is: (10 µM) 0.141; (50 µM) -0.0845.
The matching figures for “USP34_Q70CQ2_2033_CQVADMK (UniProt Q70CQ2)”: 0.0209 and 0.0671.
The matching figures for “ULK3_Q6PHR2_186_GSPLYMAPEMVCQR (UniProt Q6PHR2)”: -0.0148 and -0.194.
On to “UPF2_Q9HAU5_641_LVATLHPCMSDVAEDLCSMLR (UniProt Q9HAU5)”, for which the “probe-labelled cysteine peptide fold change” value is -0.273 (10 µM) and -0.159 (50 µM).
The matching figures for “USP7_Q93009_300_SFGWETLDSFMQHDVQELCR (UniProt Q93009)”: -0.086 and -0.0053.
For “UHRF2_Q96PU4_704_ASDSAEAIEAFQLTPQQQHLIREDCQNQK (UniProt Q96PU4)”, in that order: -0.17 and 0.0146.
For “USP16_Q9Y5T5_509_EYCVNQK (UniProt Q9Y5T5)”, in that order: -0.256 and -0.428.
Turning to “USP7_Q93009_334_MVSYIQCK (UniProt Q93009)”, the “probe-labelled cysteine peptide fold change” value was -0.0252 (10 µM) and -0.213 (50 µM).
The matching figures for “UFD1_Q92890_25_CFSVSMLAGPNDR (UniProt Q92890)”: -0.0179 and 0.0238.
For “USP7_Q93009_510_HCTNAYMLVYIR (UniProt Q93009)”, the “probe-labelled cysteine peptide fold change” value was -0.0145 (10 µM) and -0.119 (50 µM).
For “UHRF2_Q96PU4_541_ALALNCDAPLDDK (UniProt Q96PU4)”, in that order: -0.341 and 0.0116.
For “USP39_Q53GS9_139_LCSISLSHINAYACLVCGK (UniProt Q53GS9)”, in that order: -0.0107 and 0.0166.
“UROS_P10746_73_AVEAAELCLEQNNKTEVWER (UniProt P10746)”: the “probe-labelled cysteine peptide fold change” value (10 µM) is -0.265 and the “probe-labelled cysteine peptide fold change” value (50 µM) is -0.17.
For “UFL1_O94874_641_SIEDFISCLDSAAEACDIMVK (UniProt O94874)”, in that order: -0.154 and -0.0396.
As to “UNG_P13051_141_HYTVYPPPHQVFTWTQMCDIK (UniProt P13051)”, the “probe-labelled cysteine peptide fold change” value is, setting by setting: (10 µM) 0.165; (50 µM) -0.0181.
In the case of “USP34_Q70CQ2_1330_KGEGVQLPASCLPPPQK (UniProt Q70CQ2)”, the “probe-labelled cysteine peptide fold change” value (10 µM) is -0.00884 and the “probe-labelled cysteine peptide fold change” value (50 µM) was -0.266.
The matching figures for “USP15_Q9Y4E8_873_DKLDTLVDFPINDLDMSEFLINPNAGPCR (UniProt Q9Y4E8)”: 0.183 and 0.0221.
In the case of “USP19_O94966_1017_LEDKGDTPLELGDDCSLALVWR (UniProt O94966)”, the “probe-labelled cysteine peptide fold change” value runs as follows: (10 µM) -0.14; (50 µM) -0.0111.
The matching figures for “UROS_P10746_119_IGLDTEGETCGNAEK (UniProt P10746)”: 0.0467 and -0.148.
For “USP6_P35125_1185_SGTSCPSSK (UniProt P35125)”, in that order: -0.0146 and 0.069.
For “USP40_Q9NVE5_50_NQGGTCYLNSLLQTLHFTPEFR (UniProt Q9NVE5)”, in that order: -0.26 and -0.513.
Turning to “USP19_O94966_1042_ELECAEDPGSAGEAAR (UniProt O94966)”, the “probe-labelled cysteine peptide fold change” value (10 µM) was found to be 0.18 and the “probe-labelled cysteine peptide fold change” value (50 µM) was 0.0647.
Consider “USP15_Q9Y4E8_633_ISTETEETEGSLHCCK (UniProt Q9Y4E8)”, for which the “probe-labelled cysteine peptide fold change” value is, setting by setting: (10 µM) 0.0331; (50 µM) -0.11.
The matching figures for “UFC1_Q9Y3C8_116_ICLTDHFKPLWAR (UniProt Q9Y3C8)”: -0.522 and -0.68.
For “URGCP_Q8TCY9_629_EMGQFYEAESCLVEAGRLPAGQR (UniProt Q8TCY9)”, in that order: -0.0582 and -0.0562.
The matching figures for “USP4_Q13107_519_VTVPLMGAVSDLCEALSR (UniProt Q13107)”: -0.116 and -0.0154.
As for “UFC1_Q9Y3C8_69_CWYIHDLLK (UniProt Q9Y3C8)”, the “probe-labelled cysteine peptide fold change” value is 0.0109 (10 µM) and 0.124 (50 µM).
“UPF2_Q9HAU5_687_NDTLHCLK (UniProt Q9HAU5)”: the “probe-labelled cysteine peptide fold change” value is 0.00638 (10 µM) and 0.0602 (50 µM).
On to “UHRF1_Q96T88_269_ELYANVVLGDDSLNDCR (UniProt Q96T88)”, for which the “probe-labelled cysteine peptide fold change” value is, setting by setting: (10 µM) -0.153; (50 µM) -0.0383.
The matching figures for “UCHL3_P15374_95_QTISNACGTIGLIHAIANNK (UniProt P15374)”: -0.0486 and -0.313.
Take “UBR7_Q8N806_46_CSYSQGSVKR (UniProt Q8N806)”: the “probe-labelled cysteine peptide fold change” value was -0.138 (10 µM) and -0.215 (50 µM).
For the target “UNK_Q9C0B0_299+308_CNDMQQSGSCPR (UniProt Q9C0B0)”, the “probe-labelled cysteine peptide fold change” value reads like this: (10 µM) 0.0296; (50 µM) -0.132.
With “USP24_Q9UPU5_679_LVTGSLIACHR (UniProt Q9UPU5)”, the “probe-labelled cysteine peptide fold change” value (10 µM) is -0.168 and the “probe-labelled cysteine peptide fold change” value (50 µM) stood at 0.072.
The matching figures for “UQCRC1_P31930_154_AVELLGDIVQNCSLEDSQIEK (UniProt P31930)”: 0.0711 and 0.102.

These data come from the supplement of paper PMC12067093, “Discovery and optimisation of a covalent ligand for TRIM25 and its application to targeted protein ubiquitination” (Chemical Science, 2025).
